Test results taken from PubChem BioAssay AID1347076 (National Center for Advancing Translational Sciences (NCATS), 2019).
The whole screen tested about 400,000 compounds, of which about 13,000 (3.2%) were called active. The inconclusive results got no clear call from the source; some entries with a clear call stand among them for comparison. Calls follow the shape of the dose curve; as a rule, active = well fitted cell-killing curve with a large enough effect; inconclusive = small, poorly fitted or top-dose-only effect, or effect the other way; inactive = flat fitted curve, though single readings scatter. Where the call is inconclusive, the potency comes from a doubtful curve fit.

Assay: qHTS assay for MDR1-selective chemotherapeutics: Primary screen using the drug-selected MDR subline cells KB-V1; also: nearly all actives have a fitted effect of over 60% in size
Settings: KB-V1 MDR cells viability, CellTiter-Glo, 72 h; series mostly up to 46.1 µM
Procedure, shortened: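 qHTS viability screen in drug-selected KB-V1 MDR cells: 72 h compound treatment at 37 degrees C, ATP luminescence end point.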
Potency is read from the fitted curve at half-maximal effect.

SMILES	Potency
Cn1cc(/C=C/C(=O)N2CCCC(C(=O)c3cccc(C(F)(F)F)c3)C2)cn1 (stereo unspecified)	inconclusive: 25.9 µM [cytotoxic, single point]
O=C(NCCc1cccnc1)C1CCC(=O)N(Cc2cccc(C(F)(F)F)c2)C1 (stereo unspecified)	inconclusive: 10.3 µM [rising, partial curve, poor fit]
CCCCNC(=O)c1nc(C2CCN(S(=O)(=O)c3ccc(Cl)cc3)CC2)oc1-c1ccccc1	inconclusive: 2.59 µM [cytotoxic, full curve]
CCCc1cc(-c2ccc(O)c(OCC)c2)c(C#N)c(N)n1	inconclusive: 29.1 µM [cytotoxic, single point]
O=S(=O)(c1ccc(=S)[nH]c1)N1CCCCC1	inconclusive: 1.84 µM [rising, full curve, poor fit]
CCCCN(CC)C(=O)Cn1ncc2c3ccccc3n(CCC)c2c1=O	inconclusive: 25.9 µM [cytotoxic, single point]
COc1cc(-c2nc3ccc(C)cn3c2NCc2ccccc2)ccc1SC1CCCCC1	inconclusive: 13 µM [cytotoxic, partial curve]
CCn1c2ccccc2c2cc(NC(=O)COc3ccccc3)ccc21	inconclusive: 23.1 µM [cytotoxic, single point]
COc1cccc(OC)c1C(=O)NNC(=O)c1cccc(COc2ccc3c(c2)CCC3)c1	inconclusive: 11.6 µM [cytotoxic, partial curve, poor fit]
COc1cc(-c2cc(C(=O)Nc3cc(S(=O)(=O)N4CCOCC4)ccc3O)c3ccccc3n2)cc(OC)c1OC	inconclusive: 29.1 µM [rising, single point]
COc1cc(/C=C2\SC(N)=NC2=O)cc(OC)c1	inactive
Cn1c(CSc2nc3ccccc3n2C)nc2ccccc21	inconclusive: 10.3 µM [cytotoxic, partial curve, poor fit]
CC(C)CC(N)c1csc(Nc2ccc(C(=O)NCCO)cc2)n1 (stereo unspecified)	inactive
Cc1ccc(NCC(=O)N/N=C\c2cccc(O)c2)cc1	inactive
CCOc1cc(C(=O)Nc2cccc(C(C)=O)c2)ccc1OCC(=O)N1CCCCC1	inconclusive: 11.6 µM [cytotoxic, partial curve, poor fit]
CCCc1cc(=O)oc2c(C)c(OCC(=O)Nc3ccccn3)ccc12	inconclusive: 0.411 µM [cytotoxic, full curve, poor fit]
COc1ccc(NC(=O)c2ccc(CN3CCN(c4ccccc4)CC3)cc2)cc1OC	active: 16.4 µM
Cc1ccc(OCCSc2nc3ccccc3n2CC(=O)O)cc1	inconclusive: 0.92 µM [rising, full curve, poor fit]
Cc1ccc(N(CC(=O)Nc2ccccc2-c2ccccc2)S(=O)(=O)c2ccccc2)cc1	active: 23.1 µM
CCCCCCn1c(O)c(/C=C2\C=NN=C2c2ccccc2)sc1=S	inconclusive: 18.4 µM [cytotoxic, single point]
Cc1ccc(C(=O)Oc2ccc(-c3nnco3)cc2)o1	inactive
O=C1[C@@H]2Cc3c([nH]c4ccccc34)C(c3ccc([N+](=O)[O-])cc3)N2C(=O)CN1C1CC1 (stereo partly specified)	inconclusive: 18.4 µM [cytotoxic, single point]
COc1cc(C=c2c3ccccc3n3c2cc(-c2ccccc2)[n+]3C)cc(OC)c1OC	inconclusive: 29.1 µM [cytotoxic, single point]
COC(=O)C[C@H]1CC[C@H](NC(=O)Nc2ccccc2)[C@@H](CO)O1	inactive

SMILES	Potency
Cc1cc(C)c2c(N)c(C(=O)c3ccc(Cl)c(Cl)c3)sc2n1	inactive
COc1cccc(OCc2cc(C(=O)NC3CCOCC3)no2)c1	inconclusive: 0.0259 µM [rising, full curve]
CN1CCN(c2nc3ccccc3nc2C(C#N)S(=O)(=O)c2ccccc2)CC1 (stereo unspecified)	inactive
Cc1ccc(-c2nc3ccccc3c(=O)n2O)cc1	inactive
COc1ccc2nc(SCc3ccccc3C)nc(C)c2c1	active: 14.6 µM
CCN(c1ccccc1)S(=O)(=O)c1ccc(Cl)c(NC(=O)CN2CCN(C)CC2)c1	inactive
O=C(O)COc1ccc(/C=C/c2ccc3cccc([N+](=O)[O-])c3n2)cc1	inconclusive: 18.4 µM [rising, single point]
COc1ccc(N2C(c3cc(OC)cc(OC)c3)=Cc3ccccc3C2CC(C)=O)cc1 (stereo unspecified)	inactive
CC(=O)/C(C#N)=C1\NC(=O)C(Cc2cc(Cl)ccc2Cl)S1 (stereo unspecified)	active: 6.51 µM
O=S(=O)(c1ccc(C(F)(F)F)cc1)N1CCN(CCc2ccccc2)CC1	inactive
O=C(Nc1nc2ccccc2[nH]1)c1ccc(OC(F)F)cc1	inconclusive: 18.4 µM [cytotoxic, partial curve, poor fit]
CCCn1c(NC(=O)c2cccc(C)c2C)nc2ccccc21	inconclusive: 13 µM [cytotoxic, partial curve]
C[C@@H]1CN([C@@H](C)CO)C(=O)CCCn2cc(nn2)CO[C@H]1CN(C)S(=O)(=O)c1ccc(C#N)cc1	inconclusive: 29.1 µM [rising, single point]
COc1cc2nc(SCC(=O)Nc3ccccc3F)n3nc(-c4ccccc4)nc3c2cc1OC	inconclusive: 18.4 µM [rising, single point]
Cc1nn(-c2ccc(F)cc2)c2nc(N)c(C#N)c(-c3ccc(O)c(O)c3)c12	inactive
Cc1ccccc1-c1nc(CN2CCC(C(=O)NC3CCCCC3)CC2)c(C)o1	inactive
Cc1ccc(-c2noc(CCC(=O)NCCN3CCc4ccccc4C3)n2)cc1	inconclusive: 25.9 µM [cytotoxic, partial curve, poor fit]
CC1CC(C)(C)NC(=S)N1CCCC(=O)N1CCN(c2ccc(F)cc2)CC1 (stereo unspecified)	inactive
Cc1ccc(S(=O)(=O)n2cccc2/C=C/[N+](=O)[O-])cc1	inconclusive: 32.6 µM [cytotoxic, single point]
CCN1CCN(CCC(=O)Nc2ccc(F)c(F)c2)CC1	inconclusive: 18.4 µM [rising, partial curve, poor fit]
FC(F)Oc1ccc(/C=N/c2c(-c3ccc(OC(F)F)cc3)nc3n2CCS3)cc1	inconclusive: 29.1 µM [cytotoxic, single point]
CCCN(CCC)CCCNC(=O)Cn1cnc2sc(C)c(S(=O)(=O)N3CCOCC3)c2c1=O	inactive
Fc1ccc(-c2n[nH]c(=S)n2Cc2ccccc2)cc1	inconclusive: 9.2 µM [rising, single point]
N#CC1=C(SCC(=O)NC2CC2)NC(=O)C(C#N)C12CCCCC2 (stereo unspecified)	inactive

3 neighbouring compounds already listed, quoted:
SMILES	Potency
Cc1ccc(S(=O)(=O)n2cccc2/C=C/[N+](=O)[O-])cc1	inconclusive: 32.6 µM [cytotoxic, single point]
CCN1CCN(CCC(=O)Nc2ccc(F)c(F)c2)CC1	inconclusive: 18.4 µM [rising, partial curve, poor fit]
FC(F)Oc1ccc(/C=N/c2c(-c3ccc(OC(F)F)cc3)nc3n2CCS3)cc1	inconclusive: 29.1 µM [cytotoxic, single point]

The listing continues.

SMILES	Potency
c1ccc2c(c1)oc1c(NCCN3CCOCC3)ncnc12	active: 23.1 µM
Cc1ccc(-n2c(SCC3CCCCO3)nnc2-c2ccco2)cc1 (stereo unspecified)	active: 20.6 µM
CC(c1nnc(SCC(=O)Nc2sccc2C#N)n1-c1ccc(Cl)cc1)N(C)C (stereo unspecified)	inconclusive: 14.6 µM [cytotoxic, partial curve]
COc1ccccc1/C=N/Nc1cc(N(C)C)nc(N(C)C)n1	inactive
Cc1ccn2c(=O)nc(SCC(=O)NC3CCCC3)nc2c1	inactive
COc1ccc(C2C3=C(CC(C)(C)CC3=O)Nc3c2c(=O)n(C)c(=O)n3C)cc1OC (stereo unspecified)	inconclusive: 29.1 µM [rising, single point]
CCOC(=O)C1CCN(C(=O)c2ccc(S(=O)(=O)Nc3ccccc3Cl)cc2)CC1	inconclusive: 23.1 µM [cytotoxic, single point]
Cn1cc(C(=O)NCC(=O)Nc2ccccc2Br)cn1	inconclusive: 16.4 µM [rising, single point]
COc1cccc(NC(=O)CN(C)C(=O)c2sc3cc(Cl)ccc3c2Cl)c1	inconclusive: 10.3 µM [cytotoxic, partial curve]
CCCc1cc(C(=O)Nc2ccc(C(=O)c3ccccc3)cc2)n(C)n1	inactive
Cc1cc(C(=O)N/N=C/c2ccc(-c3ccc([N+](=O)[O-])cc3Cl)o2)n[nH]1	inactive
COc1ccc([C@H]2[C@H](C(=O)C(C)(C)C)N3N=Cc4ccccc4C3[C@]23N=C(c2ccccc2)OC3=O)cc1OC (stereo partly specified)	inconclusive: 5.8 µM [cytotoxic, partial curve]
CC(N)c1csc(NC(=O)c2cc(C(C)(C)C)nn2Cc2ccccc2)n1 (stereo unspecified)	inconclusive: 9.2 µM [cytotoxic, partial curve, poor fit]
CCOC(=O)C1(Cc2cccc(OC)c2)CCCN(Cc2c(C)nn(C(C)C)c2C)C1 (stereo unspecified)	inconclusive: 9.2 µM [cytotoxic, partial curve]
CSCCC(C(=O)NCc1ccccc1)n1c(-c2ccc3c(c2)CCO3)nc2ccccc21 (stereo unspecified)	inconclusive: 18.4 µM [cytotoxic, partial curve]
Cc1cccc(NC(=O)CCCc2ccccc2)c1	inactive
O=C(NCCN1CCOCC1)c1ccc2c(c1)ncn2C1CCCC1	inconclusive: 16.4 µM [rising, partial curve]
O=C(CNC(=O)c1cccc(OC(F)F)c1)OCc1cc(=O)n2cc(Br)ccc2n1	inactive
O=S(=O)(Cc1ncc(C(F)(F)F)cc1Cl)c1ccccc1	inconclusive: 20.6 µM [cytotoxic, single point]
Cc1ccccc1Nc1cc(C(=O)NCc2cccs2)c2ccccc2n1	inactive
CCCOC(=O)c1ccc(NC(=O)C(CC)CC)cc1	inactive
CC1(C)Cc2cccc(OCC(=O)N3CCN(c4cccc(C(F)(F)F)c4)CC3)c2O1	inconclusive: 23.1 µM [cytotoxic, single point]
COc1ccc(-n2nc3c(c2NC(=O)CC(C)C)CS(=O)C3)cc1 (stereo unspecified)	inconclusive: 23.1 µM [rising, single point]
